These results are taken from publication PMC6925144, “A prospective compound screening contest identified broader inhibitors for Sirtuin 1” (Scientific Reports, 2019).

Amino acid sequences for entries named in this document (tags omitted). Residues count along the entry.
UniProt Q96EB6, 2-747 limits assumed: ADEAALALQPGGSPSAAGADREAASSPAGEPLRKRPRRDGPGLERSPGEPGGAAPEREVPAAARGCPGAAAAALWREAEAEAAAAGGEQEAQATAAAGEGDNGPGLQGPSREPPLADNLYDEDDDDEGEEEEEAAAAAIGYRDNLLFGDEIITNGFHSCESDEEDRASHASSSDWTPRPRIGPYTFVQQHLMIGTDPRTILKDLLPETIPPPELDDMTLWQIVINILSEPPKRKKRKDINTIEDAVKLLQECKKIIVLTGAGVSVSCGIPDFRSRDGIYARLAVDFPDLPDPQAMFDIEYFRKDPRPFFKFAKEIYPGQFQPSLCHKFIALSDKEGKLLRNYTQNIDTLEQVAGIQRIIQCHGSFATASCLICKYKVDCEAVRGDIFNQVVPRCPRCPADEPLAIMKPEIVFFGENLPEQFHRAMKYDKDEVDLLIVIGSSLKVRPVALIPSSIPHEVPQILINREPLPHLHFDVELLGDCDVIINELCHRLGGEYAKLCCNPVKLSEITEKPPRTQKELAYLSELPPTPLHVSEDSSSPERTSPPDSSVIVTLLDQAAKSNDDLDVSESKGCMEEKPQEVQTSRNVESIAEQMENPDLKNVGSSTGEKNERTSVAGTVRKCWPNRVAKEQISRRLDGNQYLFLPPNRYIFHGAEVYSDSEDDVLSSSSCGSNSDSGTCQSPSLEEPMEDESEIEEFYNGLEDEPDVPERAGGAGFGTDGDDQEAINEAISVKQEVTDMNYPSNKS

The full ranking holds about 3,200 compounds; the median of “TSA(with NAD+) / Primary screening (TSA) / delta Tm (K)” is about -0.04, and the highest 2% start at about 0.37. Some of the results follow.

This test deals with NAD-dependent deacetylase Sirtuin 1 (human, UniProt Q96EB6). In words: primary screen, delta tm. On the set-up: single well (n = 1, as 'the same TSA'). Particulars: 10 µM. As to the method: A total of 3,192 compounds extracted from the proposed lists were first screened by thermal shift assay (TSA), which determined a melting temperature shift (ΔTm) of Sirtuin 1 upon the addition of a test compound at a concentration of 10 µM (n = 1) with primary hit criteria of ΔTm > 0.45 K or ΔTm < −1.5 K. Primary hits (48 compounds) were retested in the same assay at three concentrations (5, 10, 20 µM, n = 4) for hit confirmation and for dose-dependency check. Secondary hits (41 compounds) were checked their selectivity for Sirtuin 1 based on counterscreening on unrelated protein targets (bovine carbonic anhydrase (CA) and recombinant SH2 domain of hABL1 kinase (ABL1)) at three different concentrations (5, 10, 20 µM, n = 4), which yielded 38 hit compounds, hereafter referred to as TSA hits. The TSA screening above was conducted in the absence of NAD+. As noted, the structure of Sirtuin 1 is different in the presence of NAD+ and substrate. The chemical profile of TSA hits found from the different conditions could be different. […] As a result, 39 TSA hits were found.
As to `NC(=O)c1cccc(NC(=O)c2nn(Cc3ccccc3)c(=O)c3ccccc23)c1`, the “TSA(with NAD+) / Primary screening (TSA) / delta Tm (K)” value amounted to 0.06 K.

`O=C(OCc1cc(=O)n2ccccc2n1)c1ccccc1C(F)(F)F`: the “TSA(with NAD+) / Primary screening (TSA) / delta Tm (K)” value is -0.15 K. With `CC(=O)Nc1ccc(NCc2cc(=O)oc3c(C)c(O)ccc23)cc1Cl`, the “TSA(with NAD+) / Primary screening (TSA) / delta Tm (K)” value is recorded as -0.11 K. As to `OCC[C@@H](Nc1cncc(Cl)n1)c1ccccc1`, the “TSA(with NAD+) / Primary screening (TSA) / delta Tm (K)” value is 0.03 K. The figure for `O=c1[nH]c(CSc2cc(Cl)ccc2Cl)nc2ccsc12` is -0.01 K. The figure for `O=C(NN/C=C1/C(=O)N(c2cccc(C(F)(F)F)c2)C(=O)c2ccccc21)c1cccc(S(=O)(=O)Nc2ccccc2Cl)c1` is 0.99 K; for `Cc1oc2nc[nH]c(=O)c2c1C(=O)NCc1ccc(OCc2ccccc2)cc1` it is -0.08 K; for `O=C(O)c1nc(Nc2ccc(Cl)cc2)c2ccccc2n1` it is -0.11 K. The figure for `O=C(CCc1c[nH]c2ccccc12)NCCc1ccco1` is -0.11 K; for `c1ccc(-c2nnc(CSc3nnc(-c4cccs4)n3C3CC3)o2)cc1` it is 0.05 K.

On to `CCc1c(C)c(C#N)c2nc3ccccc3n2c1Cl`, for which the “TSA(with NAD+) / Primary screening (TSA) / delta Tm (K)” value is recorded as -0.05 K. The figure for `Cc1nn2c(nc(N3CCN(C4CCS(=O)(=O)C4)CC3)c3ccccc32)c1Cl` (centres unmarked) is -0.03 K; for `COc1ccc(NC(=O)CSCC(=O)Nc2cccc(C)c2)cc1OCc1cn2ccccc2n1` it is -0.22 K; for `O=c1[nH]c2ccc(CNCc3ccsc3)cc2[nH]1` it is -0.05 K. The figure for `O=C(CCc1ccccc1)Nc1ccccc1Cc1ccccc1` is -0.06 K; for `CC(C)N(CC(N)=O)Cc1sc2ccccc2c1Cl` it is -0.19 K. The figure for `CCN1CCC(N)C1` (centres unmarked) is -0.28 K; for `CC(=O)Nc1ccc(NC(=O)c2ccccc2SCC(=O)NC23CC4CC(CC(C4)C2)C3)cc1` it is 0.06 K; for `CCN(CC)C1CCN(C(=O)Nc2cc(-n3cnnn3)ccc2F)C1` (centres unmarked) it is -0.06 K.

For the compound `COc1ccc(N(C)S(=O)(=O)c2cccc(C(=O)Nc3ccc(Br)c(C(F)(F)F)c3)c2)cc1`, the “TSA(with NAD+) / Primary screening (TSA) / delta Tm (K)” value is recorded as 0.69 K.

In the case of `CC(C)NS(=O)(=O)NC(C)C(=O)NCCc1c[nH]c2ccccc12` (centres unmarked), the “TSA(with NAD+) / Primary screening (TSA) / delta Tm (K)” value is on record as -0.01 K. The figure for `O=C(O)c1ccc2[nH]c3c(c2c1)CNCC3` is -0.09 K; for `NC(=O)CC1CCN(C(=O)CCc2c[nH]c3ccccc23)CC1` it is -0.03 K. The figure for `CC(O)CN1CCC(CN(C)Cc2cccc(C(N)=O)c2)CC1` (centres unmarked) is -0.02 K. With `Cn1c(-c2ccccc2)c(C(=O)N2CCCC2)c2ccccc21`, the “TSA(with NAD+) / Primary screening (TSA) / delta Tm (K)” value is 0.07 K.

In the case of `Cc1cc(C(=O)COC(=O)c2ccc(C(N)=O)cc2)c(C)n1CC1CCCO1` (centres unmarked), the “TSA(with NAD+) / Primary screening (TSA) / delta Tm (K)” value was -0.13 K.

Regarding `O=C(NC(=S)Nc1ccc(-c2nc3ccccc3[nH]2)cc1)C12CC3CC(CC(C3)C1)C2`, the “TSA(with NAD+) / Primary screening (TSA) / delta Tm (K)” value stood at 0.43 K. Take `N#CC(C(=O)CN1CCN(Cc2ccccc2)CC1)c1ccccc1` (centres unmarked): the “TSA(with NAD+) / Primary screening (TSA) / delta Tm (K)” value was 0.03 K. In the case of `CCOCCN`, the “TSA(with NAD+) / Primary screening (TSA) / delta Tm (K)” value is recorded as -0.06 K. The figure for `CC(=O)N1N=C(c2ccc(O)cc2)CC1c1ccco1` (centres unmarked) is -0.04 K; for `Cc1ccc(CNc2ncnc3ccsc23)cc1` it is -0.13 K; for `Cc1c(C(=O)O)sc2nc(SCC(=O)N3CCCC3)[nH]c(=O)c12` it is -0.09 K.

On to `COc1ccc2nc(SCC(N)=O)[nH]c2c1`, for which the “TSA(with NAD+) / Primary screening (TSA) / delta Tm (K)” value was -0.22 K. The figure for `CCCc1nc(CSc2nccn2Cc2ccccn2)cs1` is -0.03 K; for `Nc1nc(COC(=O)C2CCN(C(=O)NCc3ccco3)CC2)nc2ccccc12` it is -0.09 K.

As to `O=C1NC(c2sc3ccccc3c2Cl)Nc2ccccc21` (centres unmarked), the “TSA(with NAD+) / Primary screening (TSA) / delta Tm (K)” value is recorded as -0.24 K.

Turning to `N#Cc1ccc(Cl)cc1NC(=O)COC(=O)c1nc(-c2ccccc2)n(-c2ccccc2)n1`, the “TSA(with NAD+) / Primary screening (TSA) / delta Tm (K)” value is -0.04 K. The figure for `CC(OC(=O)c1csc(-c2ccccc2)n1)C(=O)NCc1ccco1` (centres unmarked) is -0.13 K; for `O=C1C(NCc2cscn2)CCCN1c1cccnc1` (centres unmarked) it is 0.08 K.

As to `NC(=O)COC(=O)c1ccc(OCC(=O)Nc2cccc(C(F)(F)F)c2)cc1`, the “TSA(with NAD+) / Primary screening (TSA) / delta Tm (K)” value stood at 0.23 K. The figure for `Cc1cc(-c2csc(NC(=O)c3ccc(NC(N)=O)cc3)n2)c(C)n1CCc1ccccc1` is 0.23 K; for `Cc1ccc(Cn2nc(C)c(/C=C/C(=O)c3ccc(OC(C)C(=O)O)cc3)c2C)cc1` (centres unmarked) it is -0.23 K. The figure for `Cc1cc(C)c(OC(=O)CCc2c(C)nc3c(C(N)=O)cnn3c2C)c(C)c1` is -0.21 K; for `Cc1ccc(O)c(C(=O)N2CCC(=C3C(=O)Nc4ccccc43)CC2)c1` it is 0.09 K; for `CC(C)(C)CN` it is -0.13 K. For the compound `NC(=O)C1CCN(c2ncnc3ccsc23)CC1`, the “TSA(with NAD+) / Primary screening (TSA) / delta Tm (K)” value amounted to 0.15 K.

Take `O=C(NOCCC(F)(F)F)c1ccc(-c2nnc(S)o2)cc1`: the “TSA(with NAD+) / Primary screening (TSA) / delta Tm (K)” value was -0.14 K.
